Our source for the binding values is patent US20070166710A1, “Methods for inhibiting adipogenesis and for treating type 2 diabetes” (priority 2003, published 2007).

Amino acid sequences for entries named in this document (tags omitted).
UniProt P31749: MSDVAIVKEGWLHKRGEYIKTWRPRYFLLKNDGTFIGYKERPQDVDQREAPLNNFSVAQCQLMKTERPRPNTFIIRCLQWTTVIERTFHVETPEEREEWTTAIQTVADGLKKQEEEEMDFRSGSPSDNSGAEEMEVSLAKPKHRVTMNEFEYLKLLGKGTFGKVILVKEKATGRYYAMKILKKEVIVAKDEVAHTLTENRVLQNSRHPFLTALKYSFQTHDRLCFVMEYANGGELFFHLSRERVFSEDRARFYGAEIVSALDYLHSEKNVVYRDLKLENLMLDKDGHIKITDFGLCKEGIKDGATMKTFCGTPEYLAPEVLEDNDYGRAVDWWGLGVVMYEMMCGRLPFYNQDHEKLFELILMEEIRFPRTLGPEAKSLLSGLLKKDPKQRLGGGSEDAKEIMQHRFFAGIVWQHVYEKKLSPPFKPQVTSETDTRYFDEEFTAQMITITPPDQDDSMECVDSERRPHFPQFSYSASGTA

Results are given in words; binding and its absence hold for the method and conditions named. In cells and extracts the contact can be indirect. Some results given as binding are weak or reduced against the parent protein; the word gives no strength.

This experiment deals with T1, Foxa-2 (wildtype, rat coding region in pcDNA3) (rat) (UniProt P32182).
T1 sequence (looked up): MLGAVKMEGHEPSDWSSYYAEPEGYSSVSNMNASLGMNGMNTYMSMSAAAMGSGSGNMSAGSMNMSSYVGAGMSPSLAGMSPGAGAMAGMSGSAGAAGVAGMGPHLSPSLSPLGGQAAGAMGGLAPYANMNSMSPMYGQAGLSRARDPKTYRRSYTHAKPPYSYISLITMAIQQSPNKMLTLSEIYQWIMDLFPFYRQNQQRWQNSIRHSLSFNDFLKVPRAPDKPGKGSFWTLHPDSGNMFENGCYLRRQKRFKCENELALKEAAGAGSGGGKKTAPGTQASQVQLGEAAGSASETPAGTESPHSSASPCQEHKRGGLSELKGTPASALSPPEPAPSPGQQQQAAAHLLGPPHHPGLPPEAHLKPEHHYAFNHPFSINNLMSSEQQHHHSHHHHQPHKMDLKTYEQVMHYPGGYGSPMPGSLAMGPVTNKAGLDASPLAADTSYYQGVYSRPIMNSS
Description: co-immunoprecipitation from transfected HEK/293 cells (anti-HA IP, Western blot for Foxa-2; the reverse anti-Foxa-2 IP also coprecipitated Akt). In general terms: In western blotting, separated proteins are transferred to a membrane and probed.

Turning to “HA-Akt (human Akt1 fused to an N-terminal HA-tag, expressed from pCMV-HA-Akt) (from UniProt P31749 1-480) (enzyme)”, the binding result is reported as “binds”.
